{"sequences": {"note": "Protein sequences, listed by entry. Tags and fused reporters are not part of them.", "UniProt P11959, whole entry G188A/G192A/E206V/G207R/A208K/S213R": "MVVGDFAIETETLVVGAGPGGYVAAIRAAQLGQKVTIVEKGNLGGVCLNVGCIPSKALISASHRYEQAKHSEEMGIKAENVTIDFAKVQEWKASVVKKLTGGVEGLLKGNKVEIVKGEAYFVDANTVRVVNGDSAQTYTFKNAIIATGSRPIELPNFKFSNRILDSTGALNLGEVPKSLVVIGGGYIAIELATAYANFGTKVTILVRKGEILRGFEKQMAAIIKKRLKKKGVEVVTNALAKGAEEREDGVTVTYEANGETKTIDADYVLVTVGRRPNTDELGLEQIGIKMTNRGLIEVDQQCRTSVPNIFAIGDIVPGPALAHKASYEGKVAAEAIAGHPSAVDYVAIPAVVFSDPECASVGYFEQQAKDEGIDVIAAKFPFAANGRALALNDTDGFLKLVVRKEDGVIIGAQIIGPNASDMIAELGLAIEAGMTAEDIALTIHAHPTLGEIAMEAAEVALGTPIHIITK"}, "source": "patent USRE50715E1", "about": "“Synthetic biochemistry molecular purge valve module that maintain co-factor balance” (The Regents of the University of California, priority 2014, dated 2025)", "key": {"[1]": {"molecular_target": "T1, G. stearothermophilus pyruvate dehydrogenase complex (GsPDH-NAD+, PDH^NADH), wild type (E1a SEQ ID NO: 1, E1b SEQ ID NO: 2, E2 SEQ ID NO: 3, E3^NADH SEQ ID NO: (Geobacillus stearothermophilus, UniProt P11959))", "T1 construct": "made in house; host or cells: E. coli", "test": "PDH kinetics, monitoring the reduction of NAD(P)^+ at 340 nm", "assay_type": "biochemical", "details": "50 mM Tris pH 7.5, 5 mM MgCl2; 5 mM pyruvate, 1 mM CoA, 0.5 mM NAD(P)+", "experimental": "(§1) The individual domains of G. stearothermophilus PDH were partially purified from E. coli lysates by heat prior to modification and reconstitution of the PDH complex. E1αβ, E2, or E3 containing lysates were incubated at 65° C. for 35 minutes to heat denature E. coli proteins followed by centrifugation at 30,000×g for 20 min to pellet the precipitated proteins. […] Next, the E2 domain was lipoated in the heated extract by the addition of 1 mM (±)-α-lipoic acid, 2 mM ATP, 3 mM MgCl2, and 50 μg of purified 6×His-LplA. The lipoation reaction was then allowed to proceed with gentle mixing overnight at 25° C., yielding lipoated E2 (E2lip). After lipoation, E1αβ, E2lip, and E3 were mixed in a 3:1:3 molar ratio and incubated for at least 1 hour at 25° C. to form the active GsPDH complex. The GsPDH complex was then isolated by ultracentrifugation (Beckman) for 4 hours at 95,000×g. […] The reconstituted complex was stored at 4° C. until use."}, "[2]": {"molecular_target": "T2, G. stearothermophilus pyruvate dehydrogenase complex, engineered mutant (GsPDH-NADP, PDH^NADPH), E3 mutant E206V, G207R, A208K, S213R (E3^NADPH SEQ ID NO: 7); E1 (Geobacillus stearothermophilus, UniProt P11959, A208K/E206V/G188A/G192A/G207R/S213R)", "T2 construct": "made in house; host or cells: E. coli", "test": "PDH kinetics, monitoring the reduction of NAD(P)^+ at 340 nm", "assay_type": "biochemical", "details": "50 mM Tris pH 7.5, 5 mM MgCl2; 5 mM pyruvate, 1 mM CoA, 0.5 mM NAD(P)+", "experimental": "as §1"}}, "note": "At least one structure is not confirmed: it was looked up by name or label, or the drawing left a doubt.", "data": [{"compound": "CC(=O)C(=O)O", "note": "[Pyruvate]", "values": [{"measurement": "Km", "setting": "[1]", "value": "527.4 ± 49", "unit": "µM"}, {"measurement": "Km", "setting": "[2]", "value": "423.3 ± 68", "unit": "µM"}, {"measurement": "kcat", "setting": "[2]", "value": "174.3 ± 2.7", "unit": "µM/min/mg"}]}]}
